Measured values reported in publication doi:10.1101/2021.08.22.457283.

Assays:
[1] = target: T1, SPECC1L (human (endogenous in U2OS)) (UniProt Q69YQ0); assay: co-IP
T1 sequence: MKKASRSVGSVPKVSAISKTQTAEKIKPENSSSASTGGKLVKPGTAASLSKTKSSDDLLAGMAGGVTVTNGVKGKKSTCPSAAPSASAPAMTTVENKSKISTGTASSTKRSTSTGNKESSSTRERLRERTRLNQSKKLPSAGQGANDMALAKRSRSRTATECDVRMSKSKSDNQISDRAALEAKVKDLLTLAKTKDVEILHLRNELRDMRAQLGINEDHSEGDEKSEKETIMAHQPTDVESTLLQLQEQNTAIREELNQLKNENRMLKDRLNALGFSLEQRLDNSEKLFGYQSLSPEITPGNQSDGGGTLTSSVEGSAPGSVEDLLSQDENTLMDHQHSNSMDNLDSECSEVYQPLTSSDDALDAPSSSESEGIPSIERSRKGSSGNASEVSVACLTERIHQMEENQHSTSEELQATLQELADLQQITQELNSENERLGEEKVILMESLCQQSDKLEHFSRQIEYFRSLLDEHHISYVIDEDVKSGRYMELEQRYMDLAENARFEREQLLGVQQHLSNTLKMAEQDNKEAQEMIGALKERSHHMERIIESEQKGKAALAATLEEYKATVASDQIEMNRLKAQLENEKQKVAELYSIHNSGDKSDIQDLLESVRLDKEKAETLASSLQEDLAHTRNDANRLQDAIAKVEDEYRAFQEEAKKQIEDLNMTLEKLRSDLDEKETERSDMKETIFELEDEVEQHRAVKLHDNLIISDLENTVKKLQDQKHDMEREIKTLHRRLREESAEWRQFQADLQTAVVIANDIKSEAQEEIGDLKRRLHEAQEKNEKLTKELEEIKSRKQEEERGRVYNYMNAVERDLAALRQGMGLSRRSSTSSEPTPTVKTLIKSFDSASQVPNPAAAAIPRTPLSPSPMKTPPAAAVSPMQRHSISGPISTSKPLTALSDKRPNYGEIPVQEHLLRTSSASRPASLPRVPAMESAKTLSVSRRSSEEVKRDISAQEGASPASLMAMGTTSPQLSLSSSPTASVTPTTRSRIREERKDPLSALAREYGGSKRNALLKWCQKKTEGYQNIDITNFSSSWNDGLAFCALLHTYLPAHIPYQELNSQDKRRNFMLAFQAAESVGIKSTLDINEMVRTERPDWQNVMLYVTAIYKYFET

[2] = target: T2, TWIST1 (mouse (endogenous in embryonic hindbrain tissue)) (UniProt P26687); assay: co-IP
T2 sequence: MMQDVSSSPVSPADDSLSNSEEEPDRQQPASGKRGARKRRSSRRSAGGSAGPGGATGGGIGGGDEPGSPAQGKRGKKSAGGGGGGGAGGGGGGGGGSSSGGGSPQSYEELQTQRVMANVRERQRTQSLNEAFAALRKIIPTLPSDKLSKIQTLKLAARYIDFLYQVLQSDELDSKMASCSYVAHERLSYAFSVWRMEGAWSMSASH

For E-CADHERIN (human (endogenous in U2OS)), the binding [1] was “binds”.

With α-CATENIN the binding [2] was “binds”.

Results are given in words; binding and its absence hold for the method and conditions named. Binding seen in cells or lysates may run through a third protein. A result given as binding can be weak or reduced; the word gives no strength.
